# Measured values published in the supplement of paper PMC6690932.
# Structures can show the parent of a compound that is named as a salt. This is one part of the list. Most values come without repeats; read them as rough.
# Test system: HeLa
# Assay: lysosomal-METRIQ red/green fluorescence ratio relative to DMSO (ratio to DMSO); higher = higher lysosomal activity / lysosomal biogenesis
# Details: 10 µM; 12 h
row,SMILES,lysosomal-METRIQ red/green fluorescence ratio
1,Oc1ccc(-c2nc(-c3ccc(F)cc3)c(-c3ccncc3)[nH]2)cc1,1.06
2,C[C@H](NC(=O)/C(C#N)=C/c1cccc(Br)n1)c1ccccc1,0.955
3,C[C@@H](Oc1cc(-c2cnn(C3CCNCC3)c2)cnc1N)c1c(Cl)ccc(F)c1Cl [crizotinib],1
4,CC(C)[C@H](CO)Nc1nc(Nc2cccc(Cl)c2)c2ncn(C(C)C)c2n1 [Purvalanol A],1.15
5,COc1nccc(-c2c(-c3ccc(F)cc3)ncn2C2CCC(O)CC2)n1 (stereo not drawn),1
6,Nc1cccc(-c2cc3c(Oc4cccc(O)c4)ncnc3[nH]2)c1,0.727
7,CC[n+]1c(/C=C/N(C)c2ccccc2)n(-c2ccccc2)c2ccc(-c3nc4ccccc4s3)cc21 [Akt Inhibitor IV],0.318
8,O=C1Nc2ccc(I)cc2/C1=C\c1cc(Br)c(O)c(Br)c1 [RAF1 kinase inhibitor I],1.06
9,CC[C@]1(O)C[C@@H]2CN(CCc3c([nH]c4ccccc34)[C@@](C(=O)OC)(c3cc4c(cc3OC)N(C)[C@H]3[C@@](O)(C(=O)OC)[C@H](OC(C)=O)[C@]5(CC)C=CCN6CC[C@]43[C@@H]65)C2)C1 [Vinblastine sulfate],1.29
10,CC#C[C@]1(O)CC[C@H]2[C@@H]3CCC4=CC(=O)CCC4=C3[C@@H](c3ccc(N(C)C)cc3)C[C@@]21C [Mifepristone],0.96
11,NC1=N/C(=C2/CCNC(=O)c3[nH]ccc32)C(=O)N1 [Debromohymenialdisine (DBH)],1.09
12,CCCCCCCCCCC[C@@H](C[C@@H]1OC(=O)[C@H]1CCCCCC)OC(=O)[C@H](CC(C)C)NC=O [orlistat],0.955
13,Clc1ccccc1CNCC1CCC(CNCc2ccccc2Cl)CC1 (stereo not drawn),0.682
14,CC(C)CC(=O)N[C@H](C(=O)N[C@H](C(=O)N[C@@H](CC(C)C)[C@@H](O)CC(=O)N[C@@H](C)C(=O)N[C@@H](CC(C)C)[C@@H](O)CC(=O)O)C(C)C)C(C)C [Pepstatin A],1
15,OCCn1cc(-c2cnc3nnn(Cc4ccc5ncccc5c4)c3n2)cn1,0.955
16,CCCS(=O)(=O)Nc1ccc(F)c(C(=O)c2c[nH]c3ncc(-c4ccc(Cl)cc4)cc23)c1F [Vemurafenib],0.909
17,CCCCOc1cc(CC2CNC(=O)N2)ccc1OC (stereo not drawn),1.13
18,CC(C)[C@H](CO)Nc1nc(Nc2cccc(Cl)c2)c2ncn(C(C)C)c2n1 [purvalanol A],2.14
19,CC(C)C[C@@H](N)[C@H](O)C(=O)N[C@H](C(=O)N[C@H](C(=O)N[C@@H](CC(=O)O)C(=O)O)C(C)C)C(C)C [Amastatin],0.96
20,CC(C)C(C(=O)O)N1C(=O)C(=Cc2ccc(Br)cc2)SC1=S (stereo not drawn),1
21,Cc1cccc(-c2nn(C(=S)Nc3ccccc3)cc2-c2ccnc3ccccc23)n1,0.955
22,Cc1cn(-c2cc(NC(=O)c3ccc(C)c(Nc4nccc(-c5cccnc5)n4)c3)cc(C(F)(F)F)c2)cn1 [nilotinib],1.18
23,O=C(Nc1cccc(Nc2nccc(Nc3cccc(C(F)(F)F)c3)n2)c1)C1CC1 [Aurora kinase inhibitor III],1.18

# Retrieved one by one from above:
row,SMILES,lysosomal-METRIQ red/green fluorescence ratio
5,COc1nccc(-c2c(-c3ccc(F)cc3)ncn2C2CCC(O)CC2)n1 (stereo not drawn),1
11,NC1=N/C(=C2/CCNC(=O)c3[nH]ccc32)C(=O)N1 [Debromohymenialdisine (DBH)],1.09
